According to patent US10428106B2, “Phosphate replacement mRNA cap analogs” (ModernaTX, Inc., priority 2015, dated 2019):

Test: Co-transcriptional capping of hEPO mRNA by in vitro transcription (capping fraction)
Details: fraction of hEPO mRNA capped, used for normalization; Table 7

Compound	capping %/100
CO[C@@H]1[C@H](O)[C@@H](COP(=O)(O)OP(=O)(O)OP(=O)(O)OC[C@H]2O[C@@H]([n+]3cn(C)c4c(=O)[nH]c(N)nc43)[C@H](O)[C@@H]2O)O[C@H]1n1cnc2c(=O)[nH]c(N)nc21 [Cap1, m7GpppG(2′-Om)]	1
CO[C@H]1[C@@H](O)[C@H](n2c[n+](C)c3c(=O)[nH]c(N)nc32)O[C@@H]1COP(=O)(O)OP(=O)(O)OP(=O)(O)OC[C@H]1O[C@@H](n2cnc3c(=O)[nH]c(N)nc32)[C@H](O)[C@@H]1O [ARCA]	0.86
